This note sets out measurements from paper PMC9943673.

Protein sequences, listed by entry. Tags and fused reporters are not part of them. Lines headed by an entry give the natural chain unless they say otherwise; changes in a name come on top.
UniProt Q15554: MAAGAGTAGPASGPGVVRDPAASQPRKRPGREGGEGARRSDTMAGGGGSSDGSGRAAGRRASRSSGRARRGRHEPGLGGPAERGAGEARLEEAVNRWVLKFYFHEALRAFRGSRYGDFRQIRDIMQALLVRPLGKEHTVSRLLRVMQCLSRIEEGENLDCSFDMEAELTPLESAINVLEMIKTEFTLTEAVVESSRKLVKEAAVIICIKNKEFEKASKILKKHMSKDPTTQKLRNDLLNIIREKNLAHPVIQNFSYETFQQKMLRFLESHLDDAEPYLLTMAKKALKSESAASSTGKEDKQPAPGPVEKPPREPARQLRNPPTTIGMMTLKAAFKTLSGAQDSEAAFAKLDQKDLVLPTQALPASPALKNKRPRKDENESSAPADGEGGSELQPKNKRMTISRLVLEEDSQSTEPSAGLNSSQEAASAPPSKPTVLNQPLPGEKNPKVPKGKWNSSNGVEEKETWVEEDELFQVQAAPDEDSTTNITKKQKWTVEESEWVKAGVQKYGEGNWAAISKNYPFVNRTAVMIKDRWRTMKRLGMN
UniProt P54274: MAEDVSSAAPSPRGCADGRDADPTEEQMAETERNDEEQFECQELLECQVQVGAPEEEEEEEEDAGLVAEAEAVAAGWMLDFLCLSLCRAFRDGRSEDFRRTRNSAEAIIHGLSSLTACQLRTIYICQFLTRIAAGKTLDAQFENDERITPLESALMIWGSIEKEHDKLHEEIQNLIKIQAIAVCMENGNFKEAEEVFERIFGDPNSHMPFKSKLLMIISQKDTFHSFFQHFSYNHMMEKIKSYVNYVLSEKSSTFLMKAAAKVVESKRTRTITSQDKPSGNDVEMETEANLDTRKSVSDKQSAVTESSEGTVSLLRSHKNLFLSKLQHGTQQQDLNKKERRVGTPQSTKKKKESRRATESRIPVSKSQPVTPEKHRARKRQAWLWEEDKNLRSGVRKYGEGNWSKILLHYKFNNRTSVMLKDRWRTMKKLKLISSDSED

Experiment [1] addresses T1, EGFP-PPM1D (full length, wild type) (human) (UniProt O15297).
T1 sequence: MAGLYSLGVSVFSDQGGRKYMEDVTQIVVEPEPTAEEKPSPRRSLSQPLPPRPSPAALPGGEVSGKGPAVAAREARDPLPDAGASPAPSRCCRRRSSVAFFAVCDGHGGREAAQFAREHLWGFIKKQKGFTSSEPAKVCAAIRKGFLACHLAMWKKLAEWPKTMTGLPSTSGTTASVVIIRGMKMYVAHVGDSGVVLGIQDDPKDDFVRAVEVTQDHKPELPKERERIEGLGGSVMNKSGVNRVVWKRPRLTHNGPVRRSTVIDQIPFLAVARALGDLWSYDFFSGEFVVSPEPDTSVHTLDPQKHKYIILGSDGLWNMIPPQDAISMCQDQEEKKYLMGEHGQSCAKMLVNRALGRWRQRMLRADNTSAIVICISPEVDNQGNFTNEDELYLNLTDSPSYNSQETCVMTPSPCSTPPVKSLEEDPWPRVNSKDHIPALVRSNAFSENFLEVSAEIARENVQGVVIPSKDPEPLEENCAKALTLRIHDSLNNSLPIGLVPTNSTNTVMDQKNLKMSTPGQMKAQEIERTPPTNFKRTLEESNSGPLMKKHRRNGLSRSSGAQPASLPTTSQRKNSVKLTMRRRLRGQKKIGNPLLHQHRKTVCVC
The experiment in a line: co-IP; HEK293 transfected with EGFP-PPM1D constructs; extracts with bensonase on GFP trap; immunoblot of endogenous proteins.

Experiment [2] concerns the target isolated EGFP-TRF2 (in vitro pull-down) (human) (UniProt Q15554). The experiment in a line: pull-down; isolated EGFP-TRF2 or EGFP alone with purified His-PPM1D in vitro; both purified.
Experiment [3] addresses TRF2, endogenous in U2OS (human (endogenous in U2OS)) (UniProt Q15554). Nature of the experiment: proximity ligation; fixed cells (MCF7, U2OS), endogenous proteins, pairs of primary antibodies, Duolink PLA probes; cells also treated with PPM1D inhibitor, siRNA to TRF2 or PPM1D knock-out.
In experiment [4] the target is EGFP-TRF1 expressed in MCF7 cells (UniProt P54274). Nature of the experiment: co-IP; MCF7 transfected with EGFP-TRF1 or EGFP-TRF2; extracts with bensonase on GFP trap; immunoblot of endogenous PPM1D.
In experiment [5] the target is EGFP-TRF2 expressed in MCF7 cells (human) (UniProt Q15554). Described as above.
Experiment [6] addresses T2, RAP1, endogenous in MCF7 (human (endogenous in MCF7)) (UniProt Q9NYB0).
T2 sequence: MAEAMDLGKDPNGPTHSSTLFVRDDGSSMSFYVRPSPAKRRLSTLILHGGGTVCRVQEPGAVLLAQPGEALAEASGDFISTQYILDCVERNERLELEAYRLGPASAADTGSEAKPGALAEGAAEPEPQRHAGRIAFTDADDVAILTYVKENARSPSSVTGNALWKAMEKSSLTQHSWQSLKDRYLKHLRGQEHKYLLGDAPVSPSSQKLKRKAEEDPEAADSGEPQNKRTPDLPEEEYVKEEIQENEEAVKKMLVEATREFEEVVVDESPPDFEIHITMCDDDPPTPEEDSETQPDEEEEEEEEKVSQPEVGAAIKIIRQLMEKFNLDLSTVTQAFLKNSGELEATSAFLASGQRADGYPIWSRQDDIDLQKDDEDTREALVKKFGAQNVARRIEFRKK
The experiment in a line: proximity ligation; fixed cells (MCF7, U2OS), endogenous proteins, pairs of primary antibodies, Duolink PLA probes; cells also treated with PPM1D inhibitor, siRNA to TRF2 or PPM1D knock-out.

Experiment [7] deals with TRF2, endogenous in MCF7 (human (endogenous in MCF7)) (UniProt Q15554). Described as above.
Experiment [8] deals with EGFP-TRF2-S410A (non-phosphorylatable mutant) (human) (UniProt Q15554). The experiment in a line: co-IP; HEK293 expressing EGFP-TRF2 variants; extracts on GFP Trap; immunoblot of endogenous TIN2 (legend: DMSO or PPM1D inhibitor for 4 h).
The target in experiment [9] is EGFP-TRF2-S410E (phosphorylation mimicking mutant) (human) (UniProt Q15554). The experiment is described as above.
Experiment [10] has as its target wild-type EGFP-TRF2 expressed in HEK293 cells (human) (UniProt Q15554). The description is as above.

No constants are given. Whether binding was seen depends on the method and setting. For some assays here: In cells and extracts the contact can be indirect. Some entries that bind do so weakly or less than the wild type. For some assays here: Tags and fused reporters may be left off the sequences shown.

B1: TRF2-interacting telomeric protein 1 (RAP1), endogenous in HEK293 (protein, UniProt Q9NYB0 1-399)
chain: MAEAMDLGKDPNGPTHSSTLFVRDDGSSMSFYVRPSPAKRRLSTLILHGGGTVCRVQEPGAVLLAQPGEALAEASGDFISTQYILDCVERNERLELEAYRLGPASAADTGSEAKPGALAEGAAEPEPQRHAGRIAFTDADDVAILTYVKENARSPSSVTGNALWKAMEKSSLTQHSWQSLKDRYLKHLRGQEHKYLLGDAPVSPSSQKLKRKAEEDPEAADSGEPQNKRTPDLPEEEYVKEEIQENEEAVKKMLVEATREFEEVVVDESPPDFEIHITMCDDDPPTPEEDSETQPDEEEEEEEEKVSQPEVGAAIKIIRQLMEKFNLDLSTVTQAFLKNSGELEATSAFLASGQRADGYPIWSRQDDIDLQKDDEDTREALVKKFGAQNVARRIEFRKK
On to B1, for which, in experiment [1], the binding result is on record as “binds”.

B2: purified His-PPM1D (enzyme, UniProt O15297 1-605)
chain: MAGLYSLGVSVFSDQGGRKYMEDVTQIVVEPEPTAEEKPSPRRSLSQPLPPRPSPAALPGGEVSGKGPAVAAREARDPLPDAGASPAPSRCCRRRSSVAFFAVCDGHGGREAAQFAREHLWGFIKKQKGFTSSEPAKVCAAIRKGFLACHLAMWKKLAEWPKTMTGLPSTSGTTASVVIIRGMKMYVAHVGDSGVVLGIQDDPKDDFVRAVEVTQDHKPELPKERERIEGLGGSVMNKSGVNRVVWKRPRLTHNGPVRRSTVIDQIPFLAVARALGDLWSYDFFSGEFVVSPEPDTSVHTLDPQKHKYIILGSDGLWNMIPPQDAISMCQDQEEKKYLMGEHGQSCAKMLVNRALGRWRQRMLRADNTSAIVICISPEVDNQGNFTNEDELYLNLTDSPSYNSQETCVMTPSPCSTPPVKSLEEDPWPRVNSKDHIPALVRSNAFSENFLEVSAEIARENVQGVVIPSKDPEPLEENCAKALTLRIHDSLNNSLPIGLVPTNSTNTVMDQKNLKMSTPGQMKAQEIERTPPTNFKRTLEESNSGPLMKKHRRNGLSRSSGAQPASLPTTSQRKNSVKLTMRRRLRGQKKIGNPLLHQHRKTVCVC
With B2, the binding entry in [2] is “binds”.

B3: PPM1D, endogenous in U2OS (enzyme, UniProt O15297 1-605)
chain: MAGLYSLGVSVFSDQGGRKYMEDVTQIVVEPEPTAEEKPSPRRSLSQPLPPRPSPAALPGGEVSGKGPAVAAREARDPLPDAGASPAPSRCCRRRSSVAFFAVCDGHGGREAAQFAREHLWGFIKKQKGFTSSEPAKVCAAIRKGFLACHLAMWKKLAEWPKTMTGLPSTSGTTASVVIIRGMKMYVAHVGDSGVVLGIQDDPKDDFVRAVEVTQDHKPELPKERERIEGLGGSVMNKSGVNRVVWKRPRLTHNGPVRRSTVIDQIPFLAVARALGDLWSYDFFSGEFVVSPEPDTSVHTLDPQKHKYIILGSDGLWNMIPPQDAISMCQDQEEKKYLMGEHGQSCAKMLVNRALGRWRQRMLRADNTSAIVICISPEVDNQGNFTNEDELYLNLTDSPSYNSQETCVMTPSPCSTPPVKSLEEDPWPRVNSKDHIPALVRSNAFSENFLEVSAEIARENVQGVVIPSKDPEPLEENCAKALTLRIHDSLNNSLPIGLVPTNSTNTVMDQKNLKMSTPGQMKAQEIERTPPTNFKRTLEESNSGPLMKKHRRNGLSRSSGAQPASLPTTSQRKNSVKLTMRRRLRGQKKIGNPLLHQHRKTVCVC
Take B3: the binding entry in [3] is on record as “binds”.

B4: PPM1D, endogenous in MCF7 (enzyme, UniProt O15297 1-605)
chain: MAGLYSLGVSVFSDQGGRKYMEDVTQIVVEPEPTAEEKPSPRRSLSQPLPPRPSPAALPGGEVSGKGPAVAAREARDPLPDAGASPAPSRCCRRRSSVAFFAVCDGHGGREAAQFAREHLWGFIKKQKGFTSSEPAKVCAAIRKGFLACHLAMWKKLAEWPKTMTGLPSTSGTTASVVIIRGMKMYVAHVGDSGVVLGIQDDPKDDFVRAVEVTQDHKPELPKERERIEGLGGSVMNKSGVNRVVWKRPRLTHNGPVRRSTVIDQIPFLAVARALGDLWSYDFFSGEFVVSPEPDTSVHTLDPQKHKYIILGSDGLWNMIPPQDAISMCQDQEEKKYLMGEHGQSCAKMLVNRALGRWRQRMLRADNTSAIVICISPEVDNQGNFTNEDELYLNLTDSPSYNSQETCVMTPSPCSTPPVKSLEEDPWPRVNSKDHIPALVRSNAFSENFLEVSAEIARENVQGVVIPSKDPEPLEENCAKALTLRIHDSLNNSLPIGLVPTNSTNTVMDQKNLKMSTPGQMKAQEIERTPPTNFKRTLEESNSGPLMKKHRRNGLSRSSGAQPASLPTTSQRKNSVKLTMRRRLRGQKKIGNPLLHQHRKTVCVC
As for B4, the binding result in [4], in experiment [5], in experiment [6] and in experiment [7] was “binds” each time.

B5: TIN2, endogenous in HEK293 (protein, UniProt Q9BSI4 1-451)
chain: MATPLVAGPAALRFAAAASWQVVRGRCVEHFPRVLEFLRSLRAVAPGLVRYRHHERLCMGLKAKVVVELILQGRPWAQVLKALNHHFPESGPIVRDPKATKQDLRKILEAQETFYQQVKQLSEAPVDLASKLQELEQEYGEPFLAAMEKLLFEYLCQLEKALPTPQAQQLQDVLSWMQPGVSITSSLAWRQYGVDMGWLLPECSVTDSVNLAEPMEQNPPQQQRLALHNPLPKAKPGTHLPQGPSSRTHPEPLAGRHFNLAPLGRRRVQSQWASTRGGHKERPTVMLFPFRNLGSPTQVISKPESKEEHAIYTADLAMGTRAASTGKSKSPCQTLGGRALKENPVDLPATEQKENCLDCYMDPLRLSLLPPRARKPVCPPSLCSSVITIGDLVLDSDEEENGQGEGKESLENYQKTKFDTLIPTLCEYLPPSGHGAIPVSSCDCRDSSRPL
As for B5, the binding entry in [8], in experiment [9] and in experiment [10] was “binds” in each case.

B6: TIN2, endogenous in U2OS (protein, UniProt Q9BSI4 1-451)
chain: MATPLVAGPAALRFAAAASWQVVRGRCVEHFPRVLEFLRSLRAVAPGLVRYRHHERLCMGLKAKVVVELILQGRPWAQVLKALNHHFPESGPIVRDPKATKQDLRKILEAQETFYQQVKQLSEAPVDLASKLQELEQEYGEPFLAAMEKLLFEYLCQLEKALPTPQAQQLQDVLSWMQPGVSITSSLAWRQYGVDMGWLLPECSVTDSVNLAEPMEQNPPQQQRLALHNPLPKAKPGTHLPQGPSSRTHPEPLAGRHFNLAPLGRRRVQSQWASTRGGHKERPTVMLFPFRNLGSPTQVISKPESKEEHAIYTADLAMGTRAASTGKSKSPCQTLGGRALKENPVDLPATEQKENCLDCYMDPLRLSLLPPRARKPVCPPSLCSSVITIGDLVLDSDEEENGQGEGKESLENYQKTKFDTLIPTLCEYLPPSGHGAIPVSSCDCRDSSRPL
On to B6, for which the binding result in [3] is given as “binds”.
